# Source: the supplement of paper PMC6411743
# By UniProt entry, the sequences of proteins in these tests, tags left out. Where a name states a change or a piece, a line headed by the entry shows the natural chain unless it says otherwise.
# UniProt P51648: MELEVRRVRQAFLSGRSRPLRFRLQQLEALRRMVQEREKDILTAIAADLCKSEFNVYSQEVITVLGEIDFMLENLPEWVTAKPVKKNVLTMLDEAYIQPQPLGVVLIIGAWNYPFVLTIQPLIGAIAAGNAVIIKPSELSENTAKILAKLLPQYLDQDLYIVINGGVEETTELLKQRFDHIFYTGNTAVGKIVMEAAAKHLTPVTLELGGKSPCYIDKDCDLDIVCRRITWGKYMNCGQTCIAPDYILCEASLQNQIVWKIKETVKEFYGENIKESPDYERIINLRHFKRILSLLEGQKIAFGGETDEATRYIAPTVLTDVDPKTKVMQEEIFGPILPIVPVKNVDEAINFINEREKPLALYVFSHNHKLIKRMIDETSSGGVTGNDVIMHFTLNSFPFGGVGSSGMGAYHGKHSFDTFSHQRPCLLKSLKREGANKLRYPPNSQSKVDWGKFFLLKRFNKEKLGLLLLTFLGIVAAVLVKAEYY
# UniProt Q7Z4W1: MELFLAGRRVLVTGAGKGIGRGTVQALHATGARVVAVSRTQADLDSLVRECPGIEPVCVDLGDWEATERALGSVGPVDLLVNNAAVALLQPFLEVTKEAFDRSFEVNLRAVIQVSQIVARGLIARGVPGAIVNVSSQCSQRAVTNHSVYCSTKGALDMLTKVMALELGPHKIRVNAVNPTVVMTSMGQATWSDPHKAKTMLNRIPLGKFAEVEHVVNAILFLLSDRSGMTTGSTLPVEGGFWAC
# UniProt P49815: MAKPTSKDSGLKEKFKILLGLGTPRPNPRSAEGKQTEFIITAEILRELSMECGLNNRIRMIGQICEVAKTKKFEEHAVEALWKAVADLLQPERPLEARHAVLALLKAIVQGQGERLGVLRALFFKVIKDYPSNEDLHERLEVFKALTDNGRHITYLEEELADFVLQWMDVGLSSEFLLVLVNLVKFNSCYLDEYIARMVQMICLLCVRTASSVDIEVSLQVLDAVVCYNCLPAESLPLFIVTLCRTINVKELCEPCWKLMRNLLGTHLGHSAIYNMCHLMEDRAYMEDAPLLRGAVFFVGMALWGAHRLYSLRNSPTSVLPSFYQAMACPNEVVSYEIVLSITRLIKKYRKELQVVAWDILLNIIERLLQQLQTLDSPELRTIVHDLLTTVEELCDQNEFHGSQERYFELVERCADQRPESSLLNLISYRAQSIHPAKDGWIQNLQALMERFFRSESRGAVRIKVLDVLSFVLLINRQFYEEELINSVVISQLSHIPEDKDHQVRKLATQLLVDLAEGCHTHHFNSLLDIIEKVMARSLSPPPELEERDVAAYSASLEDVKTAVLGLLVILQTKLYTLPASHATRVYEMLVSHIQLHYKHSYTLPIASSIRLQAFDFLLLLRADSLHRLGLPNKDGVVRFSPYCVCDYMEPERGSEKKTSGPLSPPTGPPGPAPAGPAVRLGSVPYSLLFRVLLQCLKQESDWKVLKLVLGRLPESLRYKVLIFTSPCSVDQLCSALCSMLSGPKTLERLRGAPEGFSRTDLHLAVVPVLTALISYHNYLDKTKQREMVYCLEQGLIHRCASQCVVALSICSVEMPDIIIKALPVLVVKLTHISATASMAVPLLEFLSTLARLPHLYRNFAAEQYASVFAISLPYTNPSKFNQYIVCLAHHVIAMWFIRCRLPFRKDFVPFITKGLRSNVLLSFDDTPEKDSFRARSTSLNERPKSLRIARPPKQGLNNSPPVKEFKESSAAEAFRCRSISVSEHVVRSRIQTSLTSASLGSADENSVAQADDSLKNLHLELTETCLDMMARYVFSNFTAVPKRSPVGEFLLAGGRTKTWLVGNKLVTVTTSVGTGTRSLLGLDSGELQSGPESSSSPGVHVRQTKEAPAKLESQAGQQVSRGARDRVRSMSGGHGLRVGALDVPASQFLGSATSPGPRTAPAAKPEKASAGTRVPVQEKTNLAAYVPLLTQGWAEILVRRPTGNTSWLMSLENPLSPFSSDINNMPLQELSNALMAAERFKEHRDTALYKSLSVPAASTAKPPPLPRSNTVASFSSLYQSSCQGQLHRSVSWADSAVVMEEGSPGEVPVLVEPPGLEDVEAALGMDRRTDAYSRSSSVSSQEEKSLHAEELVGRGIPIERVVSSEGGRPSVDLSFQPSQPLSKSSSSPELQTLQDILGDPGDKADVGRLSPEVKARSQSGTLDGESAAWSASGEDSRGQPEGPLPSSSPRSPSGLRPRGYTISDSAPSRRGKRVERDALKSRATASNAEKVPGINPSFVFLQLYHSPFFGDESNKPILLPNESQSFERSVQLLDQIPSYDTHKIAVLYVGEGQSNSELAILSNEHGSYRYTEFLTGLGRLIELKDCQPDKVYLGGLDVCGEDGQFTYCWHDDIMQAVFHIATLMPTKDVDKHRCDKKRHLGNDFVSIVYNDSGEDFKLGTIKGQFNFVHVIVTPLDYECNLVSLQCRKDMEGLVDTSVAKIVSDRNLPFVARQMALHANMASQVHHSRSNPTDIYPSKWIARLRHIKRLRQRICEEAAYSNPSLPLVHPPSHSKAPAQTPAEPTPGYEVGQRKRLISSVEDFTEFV
# UniProt Q3YEC7: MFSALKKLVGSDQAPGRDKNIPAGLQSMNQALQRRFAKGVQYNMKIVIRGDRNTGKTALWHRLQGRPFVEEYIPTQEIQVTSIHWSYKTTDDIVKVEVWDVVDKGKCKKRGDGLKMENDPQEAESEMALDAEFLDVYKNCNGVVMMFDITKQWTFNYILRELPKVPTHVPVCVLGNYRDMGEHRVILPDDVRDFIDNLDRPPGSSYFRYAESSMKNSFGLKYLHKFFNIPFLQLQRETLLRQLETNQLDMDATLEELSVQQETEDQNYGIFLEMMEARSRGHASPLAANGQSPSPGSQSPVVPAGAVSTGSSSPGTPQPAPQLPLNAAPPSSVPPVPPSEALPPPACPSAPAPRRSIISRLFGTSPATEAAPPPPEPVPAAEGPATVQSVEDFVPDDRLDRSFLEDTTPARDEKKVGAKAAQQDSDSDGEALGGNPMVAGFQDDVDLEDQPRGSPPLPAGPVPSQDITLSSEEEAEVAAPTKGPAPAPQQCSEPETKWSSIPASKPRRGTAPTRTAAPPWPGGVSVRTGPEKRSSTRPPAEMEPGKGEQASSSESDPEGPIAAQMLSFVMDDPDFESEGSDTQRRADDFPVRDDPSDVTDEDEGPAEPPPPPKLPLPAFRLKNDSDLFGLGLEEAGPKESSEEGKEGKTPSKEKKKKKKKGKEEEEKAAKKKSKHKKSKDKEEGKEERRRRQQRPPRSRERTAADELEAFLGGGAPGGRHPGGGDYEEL
# UniProt Q16543: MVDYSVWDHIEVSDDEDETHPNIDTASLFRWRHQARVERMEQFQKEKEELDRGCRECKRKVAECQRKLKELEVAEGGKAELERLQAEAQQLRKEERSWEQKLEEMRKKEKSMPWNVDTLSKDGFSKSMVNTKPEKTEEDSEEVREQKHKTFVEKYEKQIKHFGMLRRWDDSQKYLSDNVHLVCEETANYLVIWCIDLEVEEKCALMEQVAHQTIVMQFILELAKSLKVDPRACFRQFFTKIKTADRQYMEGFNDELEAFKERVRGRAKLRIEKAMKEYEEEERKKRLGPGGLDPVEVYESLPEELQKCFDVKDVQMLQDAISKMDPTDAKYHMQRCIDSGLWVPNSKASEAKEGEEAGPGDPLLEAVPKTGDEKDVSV
# UniProt Q8TCG2: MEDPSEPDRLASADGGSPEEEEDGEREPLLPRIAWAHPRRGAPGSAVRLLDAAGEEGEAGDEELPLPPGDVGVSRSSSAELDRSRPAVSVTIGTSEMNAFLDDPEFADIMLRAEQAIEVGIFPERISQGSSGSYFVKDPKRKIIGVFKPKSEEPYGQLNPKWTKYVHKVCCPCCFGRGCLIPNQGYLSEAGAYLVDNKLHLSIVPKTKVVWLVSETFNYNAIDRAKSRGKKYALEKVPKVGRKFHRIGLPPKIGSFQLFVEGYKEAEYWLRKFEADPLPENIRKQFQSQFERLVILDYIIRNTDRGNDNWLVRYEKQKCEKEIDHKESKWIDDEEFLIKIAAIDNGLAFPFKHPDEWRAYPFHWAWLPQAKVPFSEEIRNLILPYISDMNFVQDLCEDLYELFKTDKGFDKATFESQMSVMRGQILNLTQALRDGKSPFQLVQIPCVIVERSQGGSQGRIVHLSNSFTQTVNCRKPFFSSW
# UniProt Q8N6H7: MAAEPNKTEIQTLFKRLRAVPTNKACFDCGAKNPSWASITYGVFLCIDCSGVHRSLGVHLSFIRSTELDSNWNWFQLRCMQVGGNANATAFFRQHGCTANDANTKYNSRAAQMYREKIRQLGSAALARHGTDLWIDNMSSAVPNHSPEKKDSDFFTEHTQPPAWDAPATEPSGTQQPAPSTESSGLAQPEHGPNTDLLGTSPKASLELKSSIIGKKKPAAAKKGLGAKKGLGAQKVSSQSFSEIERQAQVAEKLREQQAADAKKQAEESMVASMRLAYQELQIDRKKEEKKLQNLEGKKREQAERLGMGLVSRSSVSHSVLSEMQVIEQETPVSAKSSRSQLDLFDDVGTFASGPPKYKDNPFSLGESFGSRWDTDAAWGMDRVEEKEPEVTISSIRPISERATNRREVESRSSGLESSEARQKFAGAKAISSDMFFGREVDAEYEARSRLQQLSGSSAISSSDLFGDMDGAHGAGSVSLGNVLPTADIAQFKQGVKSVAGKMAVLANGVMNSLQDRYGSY
# UniProt Q96EE3: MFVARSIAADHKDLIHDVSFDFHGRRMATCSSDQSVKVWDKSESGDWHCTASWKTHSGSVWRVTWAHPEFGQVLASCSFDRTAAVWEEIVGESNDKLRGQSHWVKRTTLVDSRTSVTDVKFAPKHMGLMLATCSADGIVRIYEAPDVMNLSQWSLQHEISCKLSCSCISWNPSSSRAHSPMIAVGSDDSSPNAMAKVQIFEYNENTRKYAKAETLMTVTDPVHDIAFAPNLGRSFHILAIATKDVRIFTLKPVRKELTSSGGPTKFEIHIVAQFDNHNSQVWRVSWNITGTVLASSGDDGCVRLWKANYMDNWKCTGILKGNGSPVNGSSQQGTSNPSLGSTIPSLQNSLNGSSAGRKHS
# UniProt O14562: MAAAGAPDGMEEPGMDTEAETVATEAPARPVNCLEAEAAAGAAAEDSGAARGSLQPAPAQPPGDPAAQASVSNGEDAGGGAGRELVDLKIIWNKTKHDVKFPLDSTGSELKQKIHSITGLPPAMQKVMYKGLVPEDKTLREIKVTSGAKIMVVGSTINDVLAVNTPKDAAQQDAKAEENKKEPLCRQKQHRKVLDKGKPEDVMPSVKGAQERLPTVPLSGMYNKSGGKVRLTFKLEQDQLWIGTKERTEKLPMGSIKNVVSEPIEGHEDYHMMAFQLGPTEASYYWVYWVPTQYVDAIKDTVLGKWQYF
# UniProt Q9H0R4: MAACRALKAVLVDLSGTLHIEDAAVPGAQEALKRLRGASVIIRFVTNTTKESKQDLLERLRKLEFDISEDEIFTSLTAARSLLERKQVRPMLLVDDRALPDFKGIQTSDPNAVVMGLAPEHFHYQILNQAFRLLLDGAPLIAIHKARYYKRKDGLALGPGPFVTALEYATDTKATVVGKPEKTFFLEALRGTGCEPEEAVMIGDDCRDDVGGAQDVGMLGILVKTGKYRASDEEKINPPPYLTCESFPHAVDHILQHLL
# UniProt O95149, whole entry: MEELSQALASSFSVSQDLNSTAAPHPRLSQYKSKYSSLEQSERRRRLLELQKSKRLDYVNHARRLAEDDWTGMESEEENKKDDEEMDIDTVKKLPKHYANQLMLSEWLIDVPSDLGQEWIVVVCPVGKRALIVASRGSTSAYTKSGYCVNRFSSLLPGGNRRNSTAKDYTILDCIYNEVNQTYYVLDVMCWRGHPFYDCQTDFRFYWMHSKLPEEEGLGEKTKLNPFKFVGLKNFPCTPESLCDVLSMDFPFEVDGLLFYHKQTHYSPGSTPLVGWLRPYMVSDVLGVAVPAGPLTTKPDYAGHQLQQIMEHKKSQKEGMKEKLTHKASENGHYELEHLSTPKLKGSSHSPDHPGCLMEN
# ± gives the standard deviation of the averaged measurements. This is one part of the list.
# Compound: Nc1nc2c(ncn2[C@@H]2O[C@H](COP(=O)(O)OP(=O)(O)OP(=O)(O)O)[C@@H](O)[C@H]2O)c(=O)[nH]1 [guanosine triphosphate]
# Test: NP40-soluble protein abundance relative to vehicle (solubility fold change) (ratio); higher = more soluble protein in presence of GTP
# Procedure, shortened: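 Values are fold changes against the detergent-processed vehicle, based on vsn-normalised intensities. Jurkat crude lysate was treated at eight concentrations from 0.1 to 10 mM (10 min at room temperature, then 3 min at 37 °C), solubilised with 0.8% NP40 and benzonase, ultracentrifuged and analysed by TMT-labelled LC-MS/MS over three independent experiments.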
Target,NP40-soluble protein abundance (concentration: 0.1mM),NP40-soluble protein abundance (concentration: 0.5mM),NP40-soluble protein abundance (concentration: 1mM),NP40-soluble protein abundance (concentration: 2mM),NP40-soluble protein abundance (concentration: 4mM),NP40-soluble protein abundance (concentration: 6mM),NP40-soluble protein abundance (concentration: 8mM),NP40-soluble protein abundance (concentration: 10mM)
K7ES11 and related entries (UniProt Q9C0C9),0.984 ± 0.043,0.981 ± 0.037,0.965 ± 0.028,0.95 ± 0.029,0.944 ± 0.048,0.952 ± 0.038,0.959 ± 0.026,0.946 ± 0.029
J3QRD1 and related entries (UniProt P51648),1.04 ± 0.02,1.09 ± 0.071,0.941 ± 0.065,1.02 ± 0.085,0.937 ± 0.069,0.964 ± 0.058,0.896 ± 0.041,0.898 ± 0.058
J3KS22 and related entries (UniProt Q7Z4W1),1.04 ± 0.054,0.977 ± 0.029,0.952 ± 0.06,0.949 ± 0.062,0.946 ± 0.04,0.947 ± 0.041,0.93 ± 0.051,0.878 ± 0.041
H3BMQ0 and related entries (UniProt P49815),1 ± 0.019,1 ± 0.024,1.03 ± 0.053,1.01 ± 0.062,1.01 ± 0.057,0.983 ± 0.053,1.08 ± 0.066,1.02 ± 0.073
H0Y4Z8 and related entries (UniProt Q3YEC7),1.01 ± 0.02,1.02 ± 0.045,1.01 ± 0.045,0.978 ± 0.034,0.984 ± 0.046,0.956 ± 0.053,0.9851 ± 0.0074,0.971 ± 0.037
H0Y5C6 and related entries (UniProt P21333),0.969 ± 0.051,0.999 ± 0.037,0.979 ± 0.036,0.924 ± 0.035,0.918 ± 0.03,0.934 ± 0.03,0.96 ± 0.05,0.922 ± 0.046
K7EL68 and related entries (UniProt Q16543),0.91 ± 0.071,0.939 ± 0.091,0.964 ± 0.11,0.927 ± 0.14,0.901 ± 0.11,0.931 ± 0.13,0.914 ± 0.073,0.928 ± 0.1
G5E9Z4 and related entries (UniProt Q8TCG2),0.987 ± 0.088,1.01 ± 0.052,0.958 ± 0.13,1.07 ± 0.089,1.11 ± 0.11,0.936 ± 0.097,1.13 ± 0.2,1.04 ± 0.25
G5E9L0 and related entries (UniProt Q8N6H7),0.96 ± 0.099,0.923 ± 0.069,0.96 ± 0.097,0.89 ± 0.091,0.919 ± 0.12,0.89 ± 0.094,0.935 ± 0.097,0.897 ± 0.091
K7ELV2 and related entries (UniProt Q96EE3),1.04 ± 0.062,1.08 ± 0.019,1.02 ± 0.036,1.05 ± 0.0084,1.03 ± 0.027,1.05 ± 0.045,1.14 ± 0.063,1.08 ± 0.022
H3BRL3 and related entries (UniProt O14562),0.9509 ± 0.0069,0.971 ± 0.079,1.02 ± 0.057,0.964 ± 0.08,0.945 ± 0.067,0.956 ± 0.1,0.959 ± 0.065,0.999 ± 0.085
K7ER15 and related entries (UniProt Q9H0R4),0.969 ± 0.1,0.99 ± 0.019,0.893 ± 0.081,0.841 ± 0.056,0.778 ± 0.13,0.827 ± 0.044,0.78 ± 0.15,0.786 ± 0.067
H3BRI5 and related entries (UniProt O95149),1.14 ± 0.062,1.03 ± 0.061,0.971 ± 0.09,1.01 ± 0.092,0.967 ± 0.13,0.962 ± 0.099,0.8957 ± 0.0036,0.877 ± 0.073
